{"source": "PubChem BioAssay AID1273", "about": "(Columbia University Molecular Screening Center, 2008)", "note": "Some of the results follow. These are further read-outs of the screen, such as a control signal, another cell line or another target. No call is given for them. Most of these compounds were active or inconclusive in the main read-out, so they are no random draw."}
{"test": "inhibitors of insulin promoter-driven GFP, primary screen, imaging, TRM-6 cells (human fetal islet line), eGFP reporter, cell count (AID 1273;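 further: cells exposed to compound for 48 h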)", "settings": "measured here: cell count, toxicity, at 2 µM, reporter expression induced with tamoxifen", "units": {"normalized cell count": "%"}}
{"smiles": "O=C1CC(C(=O)Nc2ccc(C(=O)N3CCOCC3)cc2)C2(CCCCC2)O1", "note": "(stereo not drawn)", "normalized cell count": 105}
{"smiles": "O=C(Nn1cnnc1)c1cc2c(s1)CCCCC2", "normalized cell count": 110}
{"smiles": "C/C(Cn1nc([N+](=O)[O-])cc1C)=N\\NC(=O)c1ccc(C(C)(C)C)cc1", "normalized cell count": 92.2}
{"smiles": "CN(CC(=O)N1CCCCC1)S(=O)(=O)c1cccc2cccnc12", "normalized cell count": 53.7}
{"smiles": "c1ccc2c(c1)[nH]c1c(N3CCSCC3)ncnc12", "normalized cell count": 140}
{"smiles": "N#Cc1c(-c2ccco2)nc(NCC2CCCO2)[nH]c1=O", "note": "(stereo not drawn)", "normalized cell count": 125}
{"smiles": "Cc1ccccc1Nc1nc(CSc2nnnn2-c2ccccc2)cs1", "normalized cell count": 64}
{"smiles": "Cc1cc(Oc2ccc(=O)n(C)n2)nc(Oc2ccc(=O)[nH]n2)n1", "normalized cell count": 93.8}
{"smiles": "CCSc1cnc(-c2ccccc2)n1CC", "normalized cell count": 166}
{"smiles": "CCOC(=O)N1CCN(C(=O)C2c3cc(OC)c(OC)cc3C(=O)N3CCc4ccccc4C23)CC1", "note": "(stereo not drawn)", "normalized cell count": 130}
{"smiles": "Cc1nc(NC(=O)c2ccccc2)sc1-c1csc(NCCc2ccccc2)n1", "normalized cell count": 124}
{"smiles": "CCOC(=O)c1c(/N=C/N(C)C)sc(C(=O)OC)c1C", "normalized cell count": 107}
{"smiles": "Cc1cc(C)n(C(=O)c2ccc(NC(=O)CC(C)C)cc2)n1", "normalized cell count": 38.4}
{"smiles": "Cc1ccc(-c2c3c([nH]c(=S)c2C#N)CCCC3)o1", "normalized cell count": 143}
{"smiles": "O=c1[nH]n2c(C(F)(F)F)cc(C3CC3)nc2c1N=Nc1ccccc1", "normalized cell count": 79.7}
{"smiles": "O=C(COc1ccccc1)N1c2ccccc2Sc2ccccc21", "normalized cell count": 109}
{"smiles": "O=C(Cn1cnc2c(oc3ccccc32)c1=O)NCc1ccco1", "normalized cell count": 69.5}
{"smiles": "COc1cc(OC)cc(C(=O)OCc2cc3ccccc3[nH]c2=O)c1", "normalized cell count": 71.2}
{"smiles": "c1ccc(-c2csc3ncnc(NCCN4CCOCC4)c23)cc1", "normalized cell count": 87.2}
{"smiles": "CC(C)CCNC(=O)c1c[nH]c2ccc(S(=O)(=O)N3CCC4(CC3)OCCO4)cc2c1=O", "normalized cell count": 95.9}
{"smiles": "Cc1ccc2[nH]c3c(=O)n(N)c(C)nc3c2c1", "normalized cell count": 178}
{"smiles": "Nc1cccnc1Sc1cc(Cl)cc(Cl)c1", "normalized cell count": 136}
{"smiles": "Cc1cccc(NC(=O)c2ccccc2NC(=O)CCC(=O)O)c1", "normalized cell count": 52.1}
{"smiles": "Cc1nc2sc(C(=O)OC(C)C)c(N)c2c(C)c1C", "normalized cell count": 176}
{"smiles": "COc1ccc(-c2cn3ccc4ccccc4c3n2)cc1", "normalized cell count": 72.8}
{"smiles": "COc1ccc(N(C)S(=O)(=O)c2cccc(C(=O)Nc3nc4ccccc4[nH]3)c2)cc1", "normalized cell count": 86.6}
{"smiles": "Cc1cc(C)n2c(SCc3c(C)noc3C)nnc2n1", "normalized cell count": 53.9}
{"smiles": "CC1(C)Cc2c(sc3nc[nH]c(=O)c23)CO1", "normalized cell count": 63.1}
{"smiles": "NC(=O)c1ccccc1N/C=C/C(=O)c1ccc(Cl)cc1Cl", "normalized cell count": 86.7}
{"smiles": "Nc1c(-c2cccc([N+](=O)[O-])c2)nc2ccccn12", "normalized cell count": 137}
{"smiles": "Cc1cccc(N2CCc3c2nc2ccc(Br)cc2c3N)c1", "normalized cell count": 121}
{"smiles": "COc1ccc2[nH]c3c(NCCC4=CCCCC4)ncnc3c2c1", "normalized cell count": 133}
{"smiles": "O=C(O)Cn1cc(C(=O)c2cccs2)c2ccccc21", "normalized cell count": 131}
{"smiles": "COc1ccc(-c2nnn(CCc3nn[nH]n3)n2)cc1", "normalized cell count": 111}
{"smiles": "Cc1cc(C(=O)Oc2cccnc2)ccc1[N+](=O)[O-]", "normalized cell count": 113}
{"smiles": "CCOc1ccccc1C(=O)Nc1nnc(CC)s1", "normalized cell count": 99.7}
{"smiles": "CCC(=O)Nc1ccc2nc(C)n(CC(=O)Nc3ccccc3)c(=O)c2c1", "normalized cell count": 117}
{"smiles": "Cc1nn2c(nc1=O)SCC(c1ccccc1)=N2", "normalized cell count": 98.6}
{"smiles": "CC(=O)Nc1ccc(Nc2cc(C)nc3c(-c4ccccc4)cnn23)cc1", "normalized cell count": 201}
{"smiles": "O=C(NCCc1ccccc1)C(c1cccs1)N(C(=O)CCl)c1ccc(Cl)cc1", "note": "(stereo not drawn)", "normalized cell count": 0}
{"smiles": "CCc1nnc2c3cnn(-c4ccccc4)c3ncn12", "normalized cell count": 66.1}
{"smiles": "Cc1snc(S(=O)(=O)/C(C#N)=N/Nc2cccc(C(F)(F)F)c2)c1C#N", "normalized cell count": 43.3}
{"smiles": "c1ccc2c(c1)Sc1ccccc1-n1cnnc1-2", "normalized cell count": 137}
{"smiles": "NC(=O)COC(=O)CCCc1c[nH]c2ccccc12", "normalized cell count": 142}
{"smiles": "CC1CCN(Cc2nc3c(c(=O)n(C)c(=O)n3C)n2Cc2c(F)cccc2Cl)CC1", "normalized cell count": 87.4}
{"smiles": "Cc1ccc(-c2csc(C(C#N)=C3CCCC3)n2)cc1", "normalized cell count": 47.1}
{"smiles": "CCOCCCn1c(C)nc2c(c1=O)c1nc3ccccc3nc1n2-c1ccc(C)cc1", "normalized cell count": 189}
{"smiles": "c1cc2c3c(cccc3c1)C(N1CCCCC1)=N2", "normalized cell count": 75.8}
{"smiles": "Cc1ccc(NC(=O)C2CCCN(S(=O)(=O)c3ccc4c(c3)oc(=O)n4C)C2)nc1", "note": "(stereo not drawn)", "normalized cell count": 20.9}
{"smiles": "CCCNc1nc(N2CCCC2)nc(N2CCCC2)n1", "normalized cell count": 108}
{"smiles": "Cn1c(NCc2cccc(Br)c2)nc2ccccc21", "normalized cell count": 134}
{"smiles": "CCOC(=O)c1c(C)cc(C)n2c1nc1ccccc12", "normalized cell count": 322}
{"smiles": "Cc1ccc(-n2sc3ccccc3c2=O)cc1S(=O)(=O)N1CCCCC1", "normalized cell count": 36.9}
{"smiles": "CC(=O)CCc1c(C)c2cc(C)ccc2[nH]c1=O", "normalized cell count": 25.4}
{"smiles": "CC1CN(Cc2nc3c(c(=O)n(C)c(=O)n3C)n2CCc2ccccc2)CC(C)O1", "note": "(stereo not drawn)", "normalized cell count": 16.9}
{"smiles": "CCOC(=O)c1c2n(c3ccc(O)cc13)CCCCC2", "normalized cell count": 145}
{"smiles": "C/C(=N\\N1CCN(C)CC1)c1ccc(OC(F)F)cc1", "normalized cell count": 86.4}
{"smiles": "CCOC(=O)N1CCN(C(=S)NC)CC1", "normalized cell count": 33.3}
